This is an account of results in publication doi:10.1101/2023.09.14.557376.

Protein sequences, listed by entry. Tags and fused reporters are not part of them. Lines headed by an entry give the natural chain unless they say otherwise; changes in a name come on top. Chains listed by the source or under a name are the forms on record and can include a tag or linker. Residues count along the entry.
UniProt P30561, residues 10-848: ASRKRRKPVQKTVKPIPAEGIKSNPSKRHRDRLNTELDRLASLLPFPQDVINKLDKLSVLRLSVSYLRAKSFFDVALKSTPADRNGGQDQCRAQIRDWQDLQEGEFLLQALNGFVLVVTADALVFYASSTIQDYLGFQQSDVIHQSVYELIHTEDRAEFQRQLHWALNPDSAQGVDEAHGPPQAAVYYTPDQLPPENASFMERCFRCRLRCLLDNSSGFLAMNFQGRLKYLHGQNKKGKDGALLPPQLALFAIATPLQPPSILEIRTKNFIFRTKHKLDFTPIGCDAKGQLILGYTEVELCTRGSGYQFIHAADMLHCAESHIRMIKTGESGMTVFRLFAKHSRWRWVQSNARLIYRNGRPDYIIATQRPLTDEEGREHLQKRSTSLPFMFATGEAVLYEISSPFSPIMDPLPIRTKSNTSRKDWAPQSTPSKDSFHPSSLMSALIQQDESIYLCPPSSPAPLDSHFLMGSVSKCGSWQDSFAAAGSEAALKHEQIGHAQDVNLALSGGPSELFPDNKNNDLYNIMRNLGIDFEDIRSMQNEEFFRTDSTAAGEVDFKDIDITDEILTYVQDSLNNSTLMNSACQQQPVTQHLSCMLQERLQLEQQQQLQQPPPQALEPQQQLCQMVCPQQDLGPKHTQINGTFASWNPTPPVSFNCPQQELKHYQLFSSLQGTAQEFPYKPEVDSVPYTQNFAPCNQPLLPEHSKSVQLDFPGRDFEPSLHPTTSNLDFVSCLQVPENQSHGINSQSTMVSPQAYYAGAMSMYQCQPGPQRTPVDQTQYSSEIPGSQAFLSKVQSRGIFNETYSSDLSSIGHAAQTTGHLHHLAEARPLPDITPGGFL
UniProt P97303: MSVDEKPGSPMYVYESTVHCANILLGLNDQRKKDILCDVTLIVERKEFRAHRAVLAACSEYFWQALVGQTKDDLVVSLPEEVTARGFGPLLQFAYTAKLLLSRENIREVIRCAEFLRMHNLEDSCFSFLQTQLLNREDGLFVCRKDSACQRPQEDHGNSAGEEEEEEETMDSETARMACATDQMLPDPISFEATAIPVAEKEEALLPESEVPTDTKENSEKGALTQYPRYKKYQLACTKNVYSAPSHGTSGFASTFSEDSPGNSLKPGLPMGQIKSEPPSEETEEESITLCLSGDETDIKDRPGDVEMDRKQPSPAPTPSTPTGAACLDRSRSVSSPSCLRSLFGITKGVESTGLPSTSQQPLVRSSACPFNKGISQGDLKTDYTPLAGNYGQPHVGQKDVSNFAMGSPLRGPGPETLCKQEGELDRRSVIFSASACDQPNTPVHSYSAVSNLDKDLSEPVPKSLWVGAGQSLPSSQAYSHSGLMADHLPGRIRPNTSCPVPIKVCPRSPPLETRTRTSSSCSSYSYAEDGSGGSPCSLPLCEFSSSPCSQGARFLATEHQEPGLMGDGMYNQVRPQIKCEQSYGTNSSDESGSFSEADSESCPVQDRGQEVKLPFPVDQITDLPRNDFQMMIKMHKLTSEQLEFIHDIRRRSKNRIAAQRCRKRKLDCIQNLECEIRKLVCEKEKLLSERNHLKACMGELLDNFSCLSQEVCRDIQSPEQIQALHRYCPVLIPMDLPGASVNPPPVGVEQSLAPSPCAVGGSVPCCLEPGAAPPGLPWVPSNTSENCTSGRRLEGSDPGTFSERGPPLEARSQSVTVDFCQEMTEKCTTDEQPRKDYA
UniProt P11440: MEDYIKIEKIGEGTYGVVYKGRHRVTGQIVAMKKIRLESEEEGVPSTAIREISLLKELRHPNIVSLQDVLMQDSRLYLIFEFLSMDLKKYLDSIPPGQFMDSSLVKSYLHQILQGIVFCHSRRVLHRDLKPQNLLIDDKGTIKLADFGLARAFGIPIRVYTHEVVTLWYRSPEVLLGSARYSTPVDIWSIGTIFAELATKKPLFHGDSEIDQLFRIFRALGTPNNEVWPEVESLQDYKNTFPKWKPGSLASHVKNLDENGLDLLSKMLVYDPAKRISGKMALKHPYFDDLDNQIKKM
UniProt Q99J95: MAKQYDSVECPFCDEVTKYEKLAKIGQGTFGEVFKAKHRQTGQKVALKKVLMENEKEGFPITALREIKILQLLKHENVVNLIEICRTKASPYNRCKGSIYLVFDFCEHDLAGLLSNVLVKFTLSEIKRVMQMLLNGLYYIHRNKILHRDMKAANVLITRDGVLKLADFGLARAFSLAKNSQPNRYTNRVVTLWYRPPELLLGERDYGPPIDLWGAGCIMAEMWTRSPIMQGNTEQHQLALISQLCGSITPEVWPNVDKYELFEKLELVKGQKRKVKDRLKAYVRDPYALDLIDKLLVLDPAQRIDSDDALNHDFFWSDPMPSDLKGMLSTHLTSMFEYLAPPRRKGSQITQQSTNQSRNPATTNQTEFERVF
UniProt O09106: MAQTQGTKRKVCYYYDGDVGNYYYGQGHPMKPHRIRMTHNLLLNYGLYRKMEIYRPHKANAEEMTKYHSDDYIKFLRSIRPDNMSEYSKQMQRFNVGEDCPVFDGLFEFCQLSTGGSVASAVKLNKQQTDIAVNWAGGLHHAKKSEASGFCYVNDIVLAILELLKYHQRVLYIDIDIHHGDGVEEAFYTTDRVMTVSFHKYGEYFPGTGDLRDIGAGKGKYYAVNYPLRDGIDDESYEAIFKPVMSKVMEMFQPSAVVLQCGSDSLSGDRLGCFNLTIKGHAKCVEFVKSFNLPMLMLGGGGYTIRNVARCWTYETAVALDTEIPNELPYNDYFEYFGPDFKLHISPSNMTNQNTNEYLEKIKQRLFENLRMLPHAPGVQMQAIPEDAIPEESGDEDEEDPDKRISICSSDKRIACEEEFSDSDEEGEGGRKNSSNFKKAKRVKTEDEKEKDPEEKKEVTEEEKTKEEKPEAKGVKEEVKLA
UniProt Q9Z127: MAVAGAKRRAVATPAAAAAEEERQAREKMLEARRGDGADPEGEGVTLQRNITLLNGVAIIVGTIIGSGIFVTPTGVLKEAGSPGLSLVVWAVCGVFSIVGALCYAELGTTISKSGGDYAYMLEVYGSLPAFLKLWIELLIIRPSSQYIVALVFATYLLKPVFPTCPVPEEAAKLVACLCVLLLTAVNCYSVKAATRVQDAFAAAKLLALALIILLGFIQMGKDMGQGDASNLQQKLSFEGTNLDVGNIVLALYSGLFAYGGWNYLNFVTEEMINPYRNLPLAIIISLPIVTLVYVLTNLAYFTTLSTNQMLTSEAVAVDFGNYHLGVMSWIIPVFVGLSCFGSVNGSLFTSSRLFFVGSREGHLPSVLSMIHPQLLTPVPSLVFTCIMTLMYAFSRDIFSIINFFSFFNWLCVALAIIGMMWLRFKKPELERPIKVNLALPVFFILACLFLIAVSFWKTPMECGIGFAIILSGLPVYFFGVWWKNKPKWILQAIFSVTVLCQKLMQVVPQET
UniProt Q2TBA3: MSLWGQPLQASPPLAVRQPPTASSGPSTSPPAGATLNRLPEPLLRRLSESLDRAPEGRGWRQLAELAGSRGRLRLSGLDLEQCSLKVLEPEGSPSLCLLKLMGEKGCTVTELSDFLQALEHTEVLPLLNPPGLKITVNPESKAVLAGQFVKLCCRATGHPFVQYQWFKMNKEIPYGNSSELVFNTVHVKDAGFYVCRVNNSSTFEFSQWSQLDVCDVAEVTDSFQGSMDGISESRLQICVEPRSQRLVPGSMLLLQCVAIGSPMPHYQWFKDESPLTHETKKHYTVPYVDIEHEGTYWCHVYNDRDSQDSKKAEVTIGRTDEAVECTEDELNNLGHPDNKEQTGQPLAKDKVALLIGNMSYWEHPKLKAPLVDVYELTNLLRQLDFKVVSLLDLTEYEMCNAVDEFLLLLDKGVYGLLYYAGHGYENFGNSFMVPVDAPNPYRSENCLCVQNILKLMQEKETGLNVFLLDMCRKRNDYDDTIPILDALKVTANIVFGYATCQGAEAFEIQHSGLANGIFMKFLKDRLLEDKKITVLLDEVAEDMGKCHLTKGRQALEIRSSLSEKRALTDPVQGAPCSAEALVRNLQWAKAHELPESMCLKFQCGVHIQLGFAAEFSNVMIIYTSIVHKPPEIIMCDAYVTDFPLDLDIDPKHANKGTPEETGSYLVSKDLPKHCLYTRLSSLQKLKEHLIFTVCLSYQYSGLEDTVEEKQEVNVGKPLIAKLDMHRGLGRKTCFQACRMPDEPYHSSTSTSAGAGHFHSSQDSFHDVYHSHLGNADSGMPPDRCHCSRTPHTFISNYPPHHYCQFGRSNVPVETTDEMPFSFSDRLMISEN
UniProt P25799: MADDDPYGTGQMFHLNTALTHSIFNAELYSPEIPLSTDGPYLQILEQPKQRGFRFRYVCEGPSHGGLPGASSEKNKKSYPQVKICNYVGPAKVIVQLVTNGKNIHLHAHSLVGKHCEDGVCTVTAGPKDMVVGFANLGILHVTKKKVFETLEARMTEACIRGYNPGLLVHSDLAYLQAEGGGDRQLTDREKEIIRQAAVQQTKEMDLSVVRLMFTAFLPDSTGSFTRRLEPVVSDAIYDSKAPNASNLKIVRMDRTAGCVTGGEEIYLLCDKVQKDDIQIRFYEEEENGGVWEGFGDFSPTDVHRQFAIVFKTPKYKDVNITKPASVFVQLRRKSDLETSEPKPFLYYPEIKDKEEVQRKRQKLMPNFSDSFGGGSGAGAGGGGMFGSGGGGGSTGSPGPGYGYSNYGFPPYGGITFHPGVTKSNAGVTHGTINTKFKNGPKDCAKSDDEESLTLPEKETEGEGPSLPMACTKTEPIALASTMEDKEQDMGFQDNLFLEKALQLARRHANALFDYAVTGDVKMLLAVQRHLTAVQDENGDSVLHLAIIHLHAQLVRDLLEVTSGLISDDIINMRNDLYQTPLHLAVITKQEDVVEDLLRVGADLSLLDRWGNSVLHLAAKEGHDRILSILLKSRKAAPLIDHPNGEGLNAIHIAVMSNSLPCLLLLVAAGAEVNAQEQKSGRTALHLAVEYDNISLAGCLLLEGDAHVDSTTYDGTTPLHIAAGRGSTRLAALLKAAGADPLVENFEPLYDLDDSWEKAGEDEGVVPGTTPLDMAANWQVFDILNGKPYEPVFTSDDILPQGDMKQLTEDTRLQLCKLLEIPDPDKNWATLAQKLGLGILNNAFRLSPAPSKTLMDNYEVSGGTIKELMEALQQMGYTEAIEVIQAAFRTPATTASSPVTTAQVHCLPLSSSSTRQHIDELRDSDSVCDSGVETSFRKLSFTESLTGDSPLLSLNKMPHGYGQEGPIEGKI
RORγt (P51450-2, form named): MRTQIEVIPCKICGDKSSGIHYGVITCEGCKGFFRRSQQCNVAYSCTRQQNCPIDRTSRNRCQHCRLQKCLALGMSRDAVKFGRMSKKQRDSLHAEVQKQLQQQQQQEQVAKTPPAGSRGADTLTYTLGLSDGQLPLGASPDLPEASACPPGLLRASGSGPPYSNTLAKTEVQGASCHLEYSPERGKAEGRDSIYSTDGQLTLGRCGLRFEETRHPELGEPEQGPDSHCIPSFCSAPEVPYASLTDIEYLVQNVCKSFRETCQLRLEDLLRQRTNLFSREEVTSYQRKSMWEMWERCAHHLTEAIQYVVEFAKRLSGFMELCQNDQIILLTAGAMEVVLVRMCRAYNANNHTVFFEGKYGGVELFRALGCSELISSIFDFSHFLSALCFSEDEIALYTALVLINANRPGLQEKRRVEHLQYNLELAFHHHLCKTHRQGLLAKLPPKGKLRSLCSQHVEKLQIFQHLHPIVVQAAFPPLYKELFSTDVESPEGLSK
UniProt Q00417: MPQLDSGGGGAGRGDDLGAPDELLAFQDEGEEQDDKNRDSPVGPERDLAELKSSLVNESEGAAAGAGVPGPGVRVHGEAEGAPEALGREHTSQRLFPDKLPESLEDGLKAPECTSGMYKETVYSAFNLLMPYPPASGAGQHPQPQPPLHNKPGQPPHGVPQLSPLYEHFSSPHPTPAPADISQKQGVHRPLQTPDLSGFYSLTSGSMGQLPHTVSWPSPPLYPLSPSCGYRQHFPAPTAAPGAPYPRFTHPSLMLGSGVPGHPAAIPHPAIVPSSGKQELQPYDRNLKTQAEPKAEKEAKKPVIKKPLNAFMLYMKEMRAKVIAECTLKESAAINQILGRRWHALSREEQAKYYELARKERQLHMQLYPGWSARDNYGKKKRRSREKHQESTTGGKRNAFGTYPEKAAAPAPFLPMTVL

T1: biotinylated IRF4 (IRF4-Avi-tag fusion protein, interferon regulatory factor 4) (mouse) (UniProt Q64287)
T1 sequence (chain, biotin on the Avi-tag (BirA-mediated in vivo biotinylation)): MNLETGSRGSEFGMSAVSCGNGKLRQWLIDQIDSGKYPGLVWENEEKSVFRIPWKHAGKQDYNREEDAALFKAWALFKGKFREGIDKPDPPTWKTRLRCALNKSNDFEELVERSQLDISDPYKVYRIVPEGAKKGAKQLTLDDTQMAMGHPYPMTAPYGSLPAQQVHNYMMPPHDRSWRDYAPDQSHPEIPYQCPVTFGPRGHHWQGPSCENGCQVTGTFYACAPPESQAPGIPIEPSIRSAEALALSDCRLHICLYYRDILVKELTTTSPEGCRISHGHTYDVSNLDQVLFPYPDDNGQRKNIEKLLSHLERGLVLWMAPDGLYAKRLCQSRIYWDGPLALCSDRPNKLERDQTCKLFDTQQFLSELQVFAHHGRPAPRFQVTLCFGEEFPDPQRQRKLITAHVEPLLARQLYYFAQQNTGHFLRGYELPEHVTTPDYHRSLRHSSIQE

B1: RFX1 (protein, UniProt P48377 1-963)
chain: MATQSYVTELQAAPQASQPPQAPPQALPQPPPPAAPQPPAAATPQPQYVTELQSPQPQTQPPGSQKQYVAELPAAPAPSQPATPAPSPVAQQYIVVTVSEGAMRASETVSEASPSSTASQTGVPTQVVQQVQGTQQRLLVQASVQAKPGHVSPLQLTNIQVPQQAIPTQHLVVQSPAPGTKSGQVSLTVHSAQQVHSAPERSPVQANNSTSKTAGTPAATVQQLQVHSVQQSVPVTQERSVVQATPQTKAGPVQQLTVQGLQPVHVAQEVQQLPQVPVPHVYSSQVQYVEGGDASYTASAIRSSTYQYPETPIYTQTAGTSYYEASGTAAQVSTPATSQTVASSGSVPMYVSGSPIVASSSSSEAGASNSSVGAGGNGGGGSSGGGSGGSSGSGAGTYVIQGGYMLGNASQSYSHTTRASPATVQWLLDNYETAEGVSLPRSTLYCHYLLHCQEQKLEPVNAASFGKLIRSVFMGLRTRRLGTRGNSKYHYYGLRIKASSPLLRLMEDQQHMAMRGQPFSQKQRLKPIQKMEGVANGVAVGQQSTGLSDISAQVQQYQQFLDASRSLPDFAELDLQGKVLPEGVGPGDIKAFQVLYREHCEAIVDVMVNLQFTLVETLWKTFWRYNLSQPSEAPPLAVHDEAEKRLPRASLVLLSKFQPVLQWTKHCDNVLYQGLVEILIPDVLRPIPSALTQAIRNFAKSLESWLTHAMVNIPEEMLRVKVAAAGAFAQTLRRYTSLNHLAQAARAVLQNTAQINQMLSDLNRVDFANVQEQASWVCRCEDRVVQRLEQDFKVTLQQQNSLEQWAAWLDGVVSQVLKPYQGSSGFPKAAKLFLLKWSFYSSMVIRDLTLRSAASFGSFHLIRLLYDEYMYYLIEHRVAQAKGETPIAVMGEFANLATSLNPLDPDKDEEEEEEEESEDELPQDISLAAGSESPALGPEALEPPAKLARTDTRGLFVQALPSS
B2: ZMYM2 (protein, UniProt Q9CU65 1-1376)
chain: MDTSSVGTLELTDQTPVLLGSTAMATSLTNVGNSFSGPPNPLVSRSSKFQNSSVEDDDDVVFIEPVQPPPSSAPLVADQRPITFTSSKNEELQGNDPKILPSSKELAPQKGSVSETIVIDDEEDMETNQGQEKSSSNFIERRPSETKNRTNDVDFSSSTFSRSKVNAGVSNSGITTEPDSEIQIANVTTLETGVSSVSDGQLESTDGRDMNLMITHVTSLHNTSLGDGSNGLQSSNFGVNIQTYTPSLTSQTKAGVGPFNPGRMNVAGDVFQNGESAPHHNPDSWISQSASFPRNQKQQGVDSLSPVASLPKQIFQPSNQQPTKPVKVTCANCKKPLQKGQTAYQRKGSAHLFCSTTCLSSFSHKPAPKKLCVMCKKDITTMKGTIVAQVDSSESFQEFCSTSCLSLYEDKQSPAKGALNKSRCTICGKLTEIRHEVSFKNMTHKLCSDHCFNRYRMANGLIMNCCEQCGEYLPSKGAGNNVLVVDGQQKRFCCQSCVTEYKQVGSHPSFLKEVRDHMQDSFLMQPEKYGKLTTCTGCRTQCRFFDMTQCIGPNGYMEPYCSTACMNSHKTKYAKSQSLGIICHFCKRNSLPQYQATMPDGKLYNFCNSSCVAKFQALSMQSSPNGQFVAPSDIQLKCNYCKNSFCSKPEILEWENKVHQFCSKTCSDDYKKLHCIVTYCEYCQEEKTLHETVNFSGVKRPFCSEGCKLLYKQDFARRLGLRCVTCNYCSQLCKKGATKELDGVVRDFCSEDCCKKFQEWYYKAARCDCCKSQGTLKERVQWRGEMKHFCDQHCLLRFYCQQNEPNMTTQKGPENLHYDQGCQTSRTKMTGSAPPPSPTPNKEMKNKAILCKPLTMTKATYCKPHMQTKSCQTDENWKTEYVPVPIPVPVYVPVPMHMYSQNIPVPTTVPVPVPVPVFLPAPLDSSEKIPATVEDLKSKVSSDPLDSELLTMTDMMTEEEGKAEASNINSVIIETDIIGSDLTKNSDPDIQSNMPDVPYEPDLDIEIDFPRAAEELDMENEFLLPPVFGEEYEEQPRPRSKKKGTKRKAVSGYQSHDDSSDNSECSFPFKYTYGVNAWKHWVKTRQLDEDLLVLDELKSSKSVKLKEDLLSHTTAELNYGLAHFVNEIRRPNGENYAPDSIYYLCLGIQEYLCGSNRKDNIFIDPGYQMFEQELNKILRSWQPSILPDGSIFSRVEEDYLWRIKQLGSHSPVALLNTLFYFNTKYFGLKTVEQHLRLSFGTVFRHWKKNPLTMENKACLRYQVSSLCGTDNEDKIATGKRKHEDDEPVFEQVENTANPSRCPVKMFECYLSKSPQNLNQRMDVFYLQPECSSSTDSPVWYTSTSLDRNTLENMLVRVLLVKDIYDKDNYELDEDTD
B3: FLI1 (protein, UniProt P26323 1-452)
chain: MDGTIKEALSVVSDDQSLFDSAYGAAAHLPKADMTASGSPDYGQPHKINPLPPQQEWINQPVRVNVKREYDHMNGSRESPVDCSVSKCNKLVGGGEANPMNYNSYMDEKNGPPPPNMTTNERRVIVPADPTLWTQEHVRQWLEWAIKEYGLMEIDTSFFQNMDGKELCKMNKEDFLRATSAYNTEVLLSHLSYLRESSLLAYNTTSHTDQSSRLNVKEDPSYDSVRRGAWNNNMNSGLNKSPLLGGSQTMGKNTEQRPQPDPYQILGPTSSRLANPGSGQIQLWQFLLELLSDSANASCITWEGTNGEFKMTDPDEVARRWGERKSKPNMNYDKLSRALRYYYDKNIMTKVHGKRYAYKFDFHGIAQALQPHPTETSMYKYPSDISYMPSYHAHQQKVNFVPSHPSSMPVTSSSFFGAASQYWTSPTAGIYPNPSVPRHPNTHVPSHLGSYY
B4: SUFU (protein, UniProt Q9Z0P7 1-484)
chain: MAELRPSVAPGPAAPPASGPSAPPAFASLFPPGLHAIYGECRRLYPDQPNPLQVTAIVKYWLGGPDPLDYVSMYRNMGSPSANIPEHWHYISFGLSDLYGDNRVHEFTGTDGPSGFGFELTFRLKRETGESAPPTWPAELMQGLARYVFQSENTFCSGDHVSWHSPLDNSESRIQHMLLTEDPQMQPVRTPFGVVTFLQIVGVCTEELHSAQQWNGQGILELLRTVPIAGGPWLITDMRRGETIFEIDPHLQERVDKGIETDGSNLSGVSAKCAWDDLSRPPEDEEDSRSICLGTQPRRLSGKDTEQIRETLRRGLEINSKPVLPPINSQRQNGLTHDRAPSRKDSLGSDSSTAIIPHELIRTRQLESVHLKFNQESGALIPLCLRGRLLHGRHFTYKSITGDMAITFVSTGVEGAFATEEHPYAAHGPWLQILLTEEFVEKMLEDLEDLTSPEEFKLPKEYSWPEKKLKVSILPDVVFDSPLH
B5: JunB (protein, UniProt P09450 1-344)
chain: MCTKMEQPFYHDDSYAAAGYGRSPGSLSLHDYKLLKPTLALNLADPYRGLKGPGARGPGPEGSGAGSYFSGQGSDTGASLKLASTELERLIVPNSNGVITTTPTPPGQYFYPRGGGSGGGTGGGVTEEQEGFADGFVKALDDLHKMNHVTPPNVSLGASGGPQAGPGGVYAGPEPPPVYTNLSSYSPASAPSGGSGTAVGTGSSYPTATISYLPHAPPFAGGHPAQLGLSRGASAFKEEPQTVPEARSRDATPPVSPINMEDQERIKVERKRLRNRLAATKCRKRKLERIARLEDKVKTLKAENAGLSSAAGLLREQVAQLKQKVMTHVSNGCQLLLGVKGHAF

These are yes or no findings as the source states them, for the method shown. In cells and extracts the contact can be indirect. A yes stands for co-enrichment or nearness to the bait. Other partners may have been found. Sequences can lack the tags named with a protein.

For one test, the target named is T1, biotinylated IRF4 (IRF4-Avi-tag fusion protein, interferon regulatory factor 4) (mouse). In words: affinity purification with mass spectrometry.
AHR (from UniProt P30561 10-848): the binding result was “binds”.

On to BACH2 (from UniProt P97303 1-839), for which the binding entry is “binds”.

Turning to CBP (from UniProt P45481 1-2441), the binding entry is given as “binds”.

As for “CDK1 (from UniProt P11440 1-297) (enzyme)”, the binding entry is recorded as “binds”.

With “CDK2 (from UniProt P97377 1-346) (enzyme)”, the binding result is given as “binds”.

Regarding “CDK9 (from UniProt Q99J95 1-372) (enzyme)”, the binding result is recorded as “binds”.

For the molecule “HDAC1 (from UniProt O09106 1-482) (enzyme)”, the binding entry is “binds”.

On to “LAT1 (Slc7a5) (from UniProt Q9Z127 1-512)”, for which the binding result is listed as “binds”.

In the case of MALT1 (from UniProt Q2TBA3 1-832), the binding entry is given as “binds”.

As for NFKB1 (from UniProt P25799 1-971), the binding entry is given as “binds”.

For the molecule RORγt (from UniProt P51450-2 1-495), the binding entry is recorded as “binds”.

With “TCF7 (transcription factor 7 or T cell factor 1, TCF1) (from UniProt Q00417 1-419)”, the binding result is listed as “binds”.

The target is the same in a further test. In words: affinity purification with mass spectrometry. This is another data set of the same source.
With B1, the binding entry is listed as “binds”.

Turning to B2, the binding result is “binds”.

In the case of B3, the binding entry is listed as “binds”.

As for B4, the binding entry is “binds”.

Take B5: the binding result was “binds”.
